Reference: PubChem BioAssay AID256 (DTP/NCI, 2004)
The list does not hold the whole screen: it is rich in T/C values a quarter to a half above the control, in often repeated tests (any T/C) and in doses without a T/C. Other doses and runs of a compound stand elsewhere. T/C is the treated group as % of the vehicle group. Some entries give survivors of the animals treated and no T/C: the source files T/C as zero there, which appears to mark a toxic dose or a test without result, not a measured value. Some survivor counts are full or nearly so, which does not show that the dose was tolerated: survival well below the control is almost never listed, so the zero probably covers shortened survival too. Survivors were counted at the toxicity check, usually on the fifth day, unless a day is given; later deaths do not show. Schedule codes are those of the source, taken here to give the interval after Q, in days (D) or hours (H), and the number of doses after X. Some doses were run more than once; the results are listed from low to high. For survival time, the PubChem record calls one and a half times the control and up active, and a quarter to a half above the control has no call in these data; cut-offs in other NCI protocols can differ. Some T/C values carry the count of animals alive at the toxicity check (mostly the fifth day); without a count, all were alive then.

Tested on: CD2F1 mice, L1210 leukemia ip, survival T/C
Assay: NCI In Vivo Anticancer Drug Screen. Data for tumor model L1210 Leukemia (intraperitoneal) in CD2F1 (CDF1) mice
Conditions: higher T/C = longer survival
Procedure, shortened: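 Tumor-bearing mice (transplanted tumor) were split into treated and vehicle control groups, and the measured endpoint of each treated group was divided by that of its vehicle controls.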

[1] = T/C endpoint: mean survival time, dose: 200.0 mg/kg/injection, schedule: Q04DX003 (ip), vehicle: saline with Tween-80
[2] = T/C endpoint: mean survival time, dose: 400.0 mg/kg/injection, schedule: Q04DX003 (ip), vehicle: saline with Tween-80

`CC1(C)N=C(N)N=C(N)N1c1ccc(CCCCc2ccc(S(=O)(=O)F)cc2Cl)c(Cl)c1` was tested, and the T/C (T/C endpoint: mean survival time, dose: 12.0 mg/kg/injection, schedule: Q01DX009 (ip), vehicle: Klucel (hydroxypropylcellulose) (HPC)) was 135 % of control, the T/C (T/C endpoint: mean survival time, dose: 16.5 mg/kg/injection, schedule: Q01DX009 (ip), vehicle: saline with Tween-80) was 133 % of control and the T/C (T/C endpoint: mean survival time, dose: 16.5 mg/kg/injection, schedule: Q04DX003 (ip), vehicle: acetone) was 133 % of control. The T/C (T/C endpoint: mean survival time, dose: 20.0 mg/kg/injection, schedule: Q01DX009 (ip), vehicle: Klucel (hydroxypropylcellulose) (HPC)) was 135 % of control, the T/C (T/C endpoint: mean survival time, dose: 24.75 mg/kg/injection, schedule: Q01DX009 (ip), vehicle: saline with Tween-80) was 146 % of control and the T/C (T/C endpoint: mean survival time, dose: 24.75 mg/kg/injection, schedule: Q04DX003 (ip), vehicle: acetone) was 132 % of control. The T/C (T/C endpoint: mean survival time, dose: 25.0 mg/kg/injection, schedule: Q01DX009 (ip), vehicle: saline with Tween-80) was 132 % of control, the T/C (T/C endpoint: mean survival time, dose: 33.3 mg/kg/injection, schedule: Q01DX009 (ip), vehicle: Klucel (hydroxypropylcellulose) (HPC)) was 125 % of control and the T/C (T/C endpoint: mean survival time, dose: 48.0 mg/kg/injection, schedule: Q01DX009 (ip), vehicle: saline with Tween-80) was 139 % of control. For the same molecule, the T/C (T/C endpoint: mean survival time, dose: 50.0 mg/kg/injection, schedule: Q01DX009 (ip), vehicle: saline with Tween-80) was 132 % of control, the T/C (T/C endpoint: mean survival time, dose: 50.0 mg/kg/injection, schedule: Q04DX003 (ip), vehicle: saline) was 133 % of control and the T/C (T/C endpoint: mean survival time, dose: 60.0 mg/kg/injection, schedule: Q01DX009 (ip), vehicle: saline with Tween-80) was 145 % of control. For the same molecule, the survivor count (T/C endpoint: mean survival time, dose: 75.0 mg/kg/injection, schedule: Q04DX003 (ip), vehicle: saline) was 3 of 6, the T/C (T/C endpoint: mean survival time, dose: 89.0 mg/kg/injection, schedule: Q04DX003 (ip), vehicle: saline with Tween-80) was 136 % of control and the survivor count (T/C endpoint: mean survival time, dose: 150.0 mg/kg/injection, schedule: Q01DX009 (ip), vehicle: saline with Tween-80) was 6 of 6. For the same molecule, the T/C [1] was 137 % of control, the survivor count (T/C endpoint: mean survival time, dose: 300.0 mg/kg/injection, schedule: Q01DX009 (ip), vehicle: saline with Tween-80) was 3 of 6 and the survivor count (T/C endpoint: mean survival time, dose: 450.0 mg/kg/injection, schedule: Q04DX003 (ip), vehicle: saline with Tween-80) was 6 of 6. The survivor count (T/C endpoint: mean survival time, dose: 600.0 mg/kg/injection, schedule: Q01DX009 (ip), vehicle: saline with Tween-80) was 0 of 6, the T/C (T/C endpoint: median survival time, dose: 18.0 mg/kg/injection, schedule: Q01DX009 (ip), vehicle: saline with Tween-80, evaluated on day 30) was 134 % of control [9 of 10 alive] and the T/C (T/C endpoint: median survival time, dose: 18.0 mg/kg/injection, schedule: Q01DX009 (ip), vehicle: saline with Tween-80, evaluated on day 45) was 134 % of control. For the same molecule, the T/C (T/C endpoint: median survival time, dose: 27.0 mg/kg/injection, schedule: Q01DX009 (ip), vehicle: saline with Tween-80) was 139 % of control, the T/C (T/C endpoint: median survival time, dose: 59.0 mg/kg/injection, schedule: Q04DX003 (ip), vehicle: saline with Tween-80) was 134 % of control and the T/C (T/C endpoint: median survival time, dose: 89.0 mg/kg/injection, schedule: Q04DX003 (ip), vehicle: saline with Tween-80) was 128 % of control. The T/C (T/C endpoint: median survival time, dose: 90.0 mg/kg/injection, schedule: Q01DX009 (ip), vehicle: saline with Tween-80) was 131 % of control and the T/C (T/C endpoint: median survival time, dose: 134.0 mg/kg/injection, schedule: Q04DX003 (ip), vehicle: saline with Tween-80) was 139 % of control.
For `OCC1OC(n2cnc3cncnc32)C(O)C1O` (stereo not drawn), the T/C (T/C endpoint: mean survival time, dose: 12.5 mg/kg/injection, schedule: Q01DX009 (ip), vehicle: saline) was 127 % of control.
For `CCN(CCS)Cc1ccccc1`, the survivor count [1] was 3 of 6 and the survivor count [2] was 0 of 6.
With `CCOC(=O)/C(C#N)=N\O` the survivor count (T/C endpoint: mean survival time, dose: 200.0 mg/kg/injection, schedule: Q01DX001 (ip), vehicle: saline) was 0 of 3 and the survivor count (T/C endpoint: mean survival time, dose: 400.0 mg/kg/injection, schedule: Q01DX001 (ip), vehicle: saline) was 0 of 3.
`Cc1cc(O)c2c(c1O)C(=O)C13C(=C2O)C(=O)C2C(O)C1C1C(O)C3C(=O)C3=C(O)c4c(O)cc(C)c(O)c4C(=O)C321` (stereo not drawn) was tested, and the survivor count (T/C endpoint: mean survival time, dose: 100.0 mg/kg/injection, schedule: Q04DX003 (ip), vehicle: saline with Tween-80) was 5 of 6, the survivor count [1] was 3 of 6 and the survivor count [2] was 5 of 6. For the same molecule, the survivor count (T/C endpoint: median survival time, dose: 6.25 mg/kg/injection, schedule: Q01DX009 (ip), vehicle: saline with Tween-80) was 1 of 6 and 2 of 6, the survivor count (T/C endpoint: median survival time, dose: 12.5 mg/kg/injection, schedule: Q01DX009 (ip), vehicle: saline with Tween-80) was 0 of 6 and the survivor count (T/C endpoint: median survival time, dose: 25.0 mg/kg/injection, schedule: Q01DX009 (ip), vehicle: saline with Tween-80) was 0 of 6. The survivor count (T/C endpoint: median survival time, dose: 50.0 mg/kg/injection, schedule: Q01DX009 (ip), vehicle: saline with Tween-80) was 0 of 6.
